Reference: patent publication US9901592B2 (priority 2008, dated 2018)

Key:
S. pneumoniae = type: cell-based; settings: maximum 50 passages
S. pyogenes = type: cell-based; settings: maximum 50
[1] = strain 1635 Macrolide-R [erm(A)]
[2] = strain 2686 Macrolide-R [L4 mutation]
[3] = strain 3009 Macrolide-R [23SrRNA mutation]
[4] = strain 3665 Macrolide-R [mef(A)]
[5] = strain 7127 Macrolide-S [S20N in L4, A105V in L22]
[6] = strain 237 Macrolide-R [LA mutation]
[7] = strain 2011 Macrolide-R [mef(A)]
[8] = strain 2094 Macrolide-R [erm(A)]

SMILES	Selected Resistance # Pass (S. pneumoniae; strain 1077 Macrolide-S)	Selected Resistance # Pass (S. pneumoniae; [1])	Selected Resistance # Pass (S. pneumoniae; [2])	Selected Resistance # Pass (S. pneumoniae; [3])	Selected Resistance # Pass (S. pneumoniae; [4])	Selected Resistance # Pass (S. pneumoniae; [5])	Selected Resistance (number of passages) (S. pyogenes; [6])	Selected Resistance (number of passages) (S. pyogenes; [7])	Selected Resistance (number of passages) (S. pyogenes; [8])	Selected Resistance (number of passages) (S. pyogenes; strain 2132 Macrolide-S)	Selected Resistance # Pass (S. pneumoniae; strain 24 Macrolide-R [erm(B)])	Selected Resistance # Pass (S. pneumoniae; strain 1076 Macrolide-R [erm(B)&mef(A)])	Selected Resistance (number of passages) (S. pyogenes; strain 2368 Macrolide-R [erm(B)])
CC[C@H]1OC(=O)[C@H](C)[C@@H](O[C@H]2C[C@@](C)(OC)[C@@H](O)[C@H](C)O2)[C@H](C)[C@@H](O[C@@H]2O[C@H](C)C[C@H](N(C)C)[C@H]2O)[C@](C)(OC)C[C@@H](C)C(=O)[C@H](C)[C@@H](O)[C@]1(C)O [CLR, clarithromycin]	50	49	14	25	26	15	50	50	6	50	–	–	–
CC[C@H]1OC(=O)[C@H](C)C(=O)[C@H](C)[C@@H](O[C@@H]2O[C@H](C)C[C@H](N(C)C)[C@H]2O)[C@](C)(OC)C[C@@H](C)C(=O)[C@H](C)[C@H]2N(CCCCn3cnc(-c4cccnc4)c3)C(=O)O[C@]12C [TEL, telithromycin]	15	50	25	50	14	38	50	50	22	50	14	14	6

Where two headings read alike, the source gives them in different places.
